# Measurements from patent US20080026996A1, “Selective Vpac2 Receptor Reptide Agonists” (ELI LILLY AND COMPANY, priority 2004, published 2008).
# Results are given in words; binding and its absence hold for the method and conditions named. Some binding calls cover weakened binding; strength is not graded here.
# T1: rat VPAC2 receptor (rat, UniProt P35000 23-437)
# T1 sequence (looked up): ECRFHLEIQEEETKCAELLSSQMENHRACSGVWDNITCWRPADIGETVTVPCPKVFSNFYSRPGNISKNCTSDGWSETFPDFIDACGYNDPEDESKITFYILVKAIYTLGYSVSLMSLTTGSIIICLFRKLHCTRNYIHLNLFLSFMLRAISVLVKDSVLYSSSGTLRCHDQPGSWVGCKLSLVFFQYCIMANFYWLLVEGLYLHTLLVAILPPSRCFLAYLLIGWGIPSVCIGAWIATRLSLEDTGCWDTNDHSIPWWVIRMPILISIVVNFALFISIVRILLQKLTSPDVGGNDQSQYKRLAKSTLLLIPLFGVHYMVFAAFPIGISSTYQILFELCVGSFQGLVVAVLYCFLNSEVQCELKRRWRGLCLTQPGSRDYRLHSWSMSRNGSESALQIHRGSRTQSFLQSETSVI
# T2: rat PAC1 receptor (rat, UniProt P32215 20-523)
# T2 sequence (looked up): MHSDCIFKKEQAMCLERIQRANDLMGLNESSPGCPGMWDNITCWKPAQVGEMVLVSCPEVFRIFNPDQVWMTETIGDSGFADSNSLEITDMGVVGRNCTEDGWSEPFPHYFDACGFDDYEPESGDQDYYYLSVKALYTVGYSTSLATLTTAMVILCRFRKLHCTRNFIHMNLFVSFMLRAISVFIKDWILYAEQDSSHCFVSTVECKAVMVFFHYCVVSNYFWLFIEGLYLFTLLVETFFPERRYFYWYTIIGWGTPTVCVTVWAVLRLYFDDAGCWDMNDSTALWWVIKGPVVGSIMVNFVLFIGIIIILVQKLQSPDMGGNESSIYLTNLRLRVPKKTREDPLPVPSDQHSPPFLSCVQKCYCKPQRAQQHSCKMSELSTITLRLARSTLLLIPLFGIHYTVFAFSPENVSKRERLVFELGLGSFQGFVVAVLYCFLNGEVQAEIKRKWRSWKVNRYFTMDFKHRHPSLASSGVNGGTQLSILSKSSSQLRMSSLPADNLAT
# Biological target: T1, rat VPAC2 receptor
# Test: competition binding, CHO membranes
row,Binder,binding
1,HSDAVFTDNYTRLRKQVAAKKYLQSIKNKRYGGPSSGAPPPS (N-terminal hexanoyl (C6)) [P31],binds
2,"MHSDAVFTDNYTRLRKQVAAKKYLQSIKNKRYGGPSSGAPPPS (N-terminal methionine added (M-), also called VPAC2-P104) [P104]",binds
3,HSDAVFTDNYTRLLAKLALQKYLQSIKNKRYGGPSSGAPPPS (N-terminal hexanoyl (C6)) [P119],binds

# Biological target: T2, rat PAC1 receptor
# Test: competition binding, membranes; receptor inferred as rat PAC1
row,Binder,binding
1,HSDAVFTDNYTRLRKQVAAKKYLQSIKNKRYGGPSSGAPPPS (N-terminal hexanoyl (C6)) [P31],no binding (tested: 10 µM)
2,"MHSDAVFTDNYTRLRKQVAAKKYLQSIKNKRYGGPSSGAPPPS (N-terminal methionine added (M-), also called VPAC2-P104) [P104]",no binding (tested: 10 µM)
3,HSDAVFTDNYTRLLAKLALQKYLQSIKNKRYGGPSSGAPPPS (N-terminal hexanoyl (C6)) [P119],no binding (tested: 10 µM)
